In PMC6451094:
Results are given in words; binding and its absence hold for the method and conditions named. Some results given as binding are weak or reduced against the parent protein; the word gives no strength. Tags and fused reporters may be left off the sequences shown.

Sequences of proteins named here, by UniProt entry; tags and fusion partners are left off.
UniProt P32333: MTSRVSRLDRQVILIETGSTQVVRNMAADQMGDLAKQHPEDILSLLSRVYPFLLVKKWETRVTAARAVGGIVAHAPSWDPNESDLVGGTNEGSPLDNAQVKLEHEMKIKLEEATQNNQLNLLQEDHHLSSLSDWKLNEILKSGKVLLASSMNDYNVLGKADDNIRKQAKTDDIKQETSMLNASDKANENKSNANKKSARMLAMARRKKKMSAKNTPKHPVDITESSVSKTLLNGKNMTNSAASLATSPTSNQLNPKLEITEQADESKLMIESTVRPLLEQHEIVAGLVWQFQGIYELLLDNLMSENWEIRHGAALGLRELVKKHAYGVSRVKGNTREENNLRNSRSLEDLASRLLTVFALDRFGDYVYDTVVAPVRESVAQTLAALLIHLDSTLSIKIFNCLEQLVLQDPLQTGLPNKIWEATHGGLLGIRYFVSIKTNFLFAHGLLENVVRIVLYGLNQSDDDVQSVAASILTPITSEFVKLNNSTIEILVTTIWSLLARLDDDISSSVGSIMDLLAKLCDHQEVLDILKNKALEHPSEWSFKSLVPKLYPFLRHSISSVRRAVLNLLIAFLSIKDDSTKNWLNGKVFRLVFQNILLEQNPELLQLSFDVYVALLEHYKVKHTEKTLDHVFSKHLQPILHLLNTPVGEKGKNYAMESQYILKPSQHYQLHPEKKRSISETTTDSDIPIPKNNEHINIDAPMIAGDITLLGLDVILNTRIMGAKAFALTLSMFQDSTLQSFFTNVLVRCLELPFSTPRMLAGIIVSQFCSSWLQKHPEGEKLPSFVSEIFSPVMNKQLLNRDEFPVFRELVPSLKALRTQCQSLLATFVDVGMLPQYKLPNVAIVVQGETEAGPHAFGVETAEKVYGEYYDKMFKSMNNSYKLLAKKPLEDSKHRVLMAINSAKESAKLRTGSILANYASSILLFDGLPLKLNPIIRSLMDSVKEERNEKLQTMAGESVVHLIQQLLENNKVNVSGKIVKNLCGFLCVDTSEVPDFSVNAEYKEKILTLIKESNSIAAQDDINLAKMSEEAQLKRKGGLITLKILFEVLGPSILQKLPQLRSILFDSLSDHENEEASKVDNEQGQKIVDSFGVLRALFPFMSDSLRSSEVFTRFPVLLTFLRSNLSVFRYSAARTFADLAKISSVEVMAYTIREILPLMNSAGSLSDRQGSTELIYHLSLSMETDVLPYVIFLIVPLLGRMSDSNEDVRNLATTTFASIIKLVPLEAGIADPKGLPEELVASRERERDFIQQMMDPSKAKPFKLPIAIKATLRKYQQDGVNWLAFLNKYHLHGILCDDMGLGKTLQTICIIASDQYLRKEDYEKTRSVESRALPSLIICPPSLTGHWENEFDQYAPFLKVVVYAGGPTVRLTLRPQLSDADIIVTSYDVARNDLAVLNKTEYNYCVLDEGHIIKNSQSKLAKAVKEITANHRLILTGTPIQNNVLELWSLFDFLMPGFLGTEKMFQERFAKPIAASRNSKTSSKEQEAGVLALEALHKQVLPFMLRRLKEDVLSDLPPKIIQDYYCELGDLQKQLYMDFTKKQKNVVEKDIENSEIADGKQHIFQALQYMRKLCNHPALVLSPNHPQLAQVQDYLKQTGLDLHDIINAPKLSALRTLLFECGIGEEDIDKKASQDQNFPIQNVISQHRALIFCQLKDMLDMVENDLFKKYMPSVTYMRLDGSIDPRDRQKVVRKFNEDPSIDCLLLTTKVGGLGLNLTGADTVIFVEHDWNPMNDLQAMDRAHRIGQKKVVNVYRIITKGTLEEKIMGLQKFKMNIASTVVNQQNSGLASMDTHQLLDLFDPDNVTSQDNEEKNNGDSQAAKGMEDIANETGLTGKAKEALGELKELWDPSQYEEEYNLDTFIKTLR

Key:
[1] = target: T1, TATA-box Binding Protein TBP^S61C,C78A,C164A from Saccharomyces cerevisiae, fluorescently labeled at residue 61 (Saccharomyces cerevisiae) (UniProt P13393); assay: FRET or BRET; single-pair FRET by prism-type TIRF between TBP-Atto532 and H2B promoter DNA 1-Atto647N; 10 nM DNA and 15 nM TBP pre-incubated 15 min RT, then 12.5 nM Mot1 for at least 15 min RT, diluted to ~100 pM; DNA immobilised by biotin-streptavidin-biotin; 10 mM Tris, 60 mM KCl, 5 mM MgCl2, 10% glycerol, 0.25 mg/ml BSA, 2.5 mM DTT, pH 8.2; Mot1 binding not monitored directly but read from the shift to FRET efficiency 0.78; also seen with AdML promoter DNA 6; both purified
T1 sequence (chain, Atto532 or Atto647N (maleimide-coupled) on the cysteine at residue 61): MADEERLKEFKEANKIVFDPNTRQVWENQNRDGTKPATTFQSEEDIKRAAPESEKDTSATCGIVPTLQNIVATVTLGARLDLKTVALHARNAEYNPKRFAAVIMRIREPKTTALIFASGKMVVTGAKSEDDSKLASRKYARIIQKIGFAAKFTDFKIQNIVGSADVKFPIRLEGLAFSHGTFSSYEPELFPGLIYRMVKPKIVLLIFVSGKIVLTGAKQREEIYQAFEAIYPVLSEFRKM

[2] = target: T1, TATA-box Binding Protein TBP^S61C,C78A,C164A from Saccharomyces cerevisiae, fluorescently labeled at residue 61 (Saccharomyces cerevisiae); assay: FRET or BRET; single-pair FRET in solution, confocal multi-parameter fluorescence detection with pulsed interleaved excitation (MFD-PIE); complexes prepared as for TIRF, diluted to <50 pM, measured 2 h; Mot1 binding read from the FRET increase between TBP and DNA; both purified
[3] = target: T1, TATA-box Binding Protein TBP^S61C,C78A,C164A from Saccharomyces cerevisiae, fluorescently labeled at residue 61 (Saccharomyces cerevisiae); assay: three-color single-molecule TIRF (presence of Mot1-Alexa488 on immobilised DNA/TBP complexes); alternating 488 and 532 nm excitation; complexes containing Mot1 identified by fluorescence in the green channel after 488 nm excitation; DNA/TBP FRET recorded at the same time; no nucleotide; both purified
[4] = target: T1, TATA-box Binding Protein TBP^S61C,C78A,C164A from Saccharomyces cerevisiae, fluorescently labeled at residue 61 (Saccharomyces cerevisiae); assay: three-color single-molecule TIRF (presence of Mot1-Alexa488 on immobilised DNA/TBP complexes); as a3, after addition of ATP to the ternary DNA/TBP/Mot1 complexes; both purified

Row | binding [1] | binding [2] | binding [3] | binding [4] | Substance
1 | binds | binds | – | – | Modifier of transcription 1 (Mot1) (from UniProt P32333 1-1867) (enzyme)
2 | – | – | binds | binds | Modifier of transcription 1 (Mot1) labeled with Alexa488 (from UniProt P32333 1-1867) (enzyme)
